Library screening results

Amino acid sequences for entries named in this document (tags omitted).
UniProt E9BF75, entry or part of it: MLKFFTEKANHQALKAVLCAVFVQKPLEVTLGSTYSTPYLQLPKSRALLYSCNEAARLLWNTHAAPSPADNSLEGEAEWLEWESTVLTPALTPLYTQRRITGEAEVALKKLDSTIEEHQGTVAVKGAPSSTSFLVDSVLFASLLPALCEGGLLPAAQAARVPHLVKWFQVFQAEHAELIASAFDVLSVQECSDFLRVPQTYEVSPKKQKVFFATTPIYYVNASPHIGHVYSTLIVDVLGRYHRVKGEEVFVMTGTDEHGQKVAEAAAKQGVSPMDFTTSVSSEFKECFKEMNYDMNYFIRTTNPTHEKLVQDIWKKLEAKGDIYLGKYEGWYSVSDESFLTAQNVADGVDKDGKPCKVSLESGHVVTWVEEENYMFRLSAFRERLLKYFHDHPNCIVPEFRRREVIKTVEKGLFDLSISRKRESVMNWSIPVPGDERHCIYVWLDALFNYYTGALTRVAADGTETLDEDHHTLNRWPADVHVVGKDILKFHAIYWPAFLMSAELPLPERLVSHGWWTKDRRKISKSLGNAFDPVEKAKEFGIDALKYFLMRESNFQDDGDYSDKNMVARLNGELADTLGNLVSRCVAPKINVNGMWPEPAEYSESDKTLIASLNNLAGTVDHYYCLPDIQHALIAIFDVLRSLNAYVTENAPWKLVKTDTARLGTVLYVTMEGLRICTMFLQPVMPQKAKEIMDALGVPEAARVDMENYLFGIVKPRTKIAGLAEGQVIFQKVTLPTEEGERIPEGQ

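Primary screen of methionyl-tRNA synthetase; the read-out is not stated. Target: Methionyl-tRNA synthetase (putative), Leishmania donovani (UniProt E9BF75). The test concentration is not given. Values are per cent inhibition. Size under these conditions: about 68,000 compounds, about 24 of them at 50% or above in at least one test.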

Results are percentages, as filed.
The record does not define 0% and 100%; most values in the screen are far below 50% and negative numbers occur (in some assays of this library far below -100).
Compounds were drawn at random from those tested, without regard to their results.

| structure | inhibition |
|---|---|
| `c1cc(-c2noc(C3CCC3)n2)cc(N2CCCCC2)n1` | 2.091 |
| `CN(CCO)C[C@@H]1CN(C(=O)c2cccc(OC(F)F)c2)C[C@@H]1CO` | 18.59 |
| `CC(C)c1nnc(NC(=O)NCc2ccnc(N(C)C)c2)s1` | 14.58 |
| `CNS(=O)(=O)c1ccccc1N1CCN(C(=O)NC(C)C)CC1` | 14.51 |
| `Nc1nonc1C(=O)N1Cc2ccccc2OC2(CCOCC2)C1` | 16.72 |
| `Cc1cnn(CC2CCCN2C(=O)CCc2c(C)nn(C)c2C)c1` (stereo not given) | 6.402 |
| `CC1CN(Cc2ccc(-n3cccn3)cc2)CCO1` (stereo not given) | 21.69 |
| `CC1CN(C(=O)NCc2cccc(C#N)c2)CCN1CC(F)(F)F` (stereo not given) | 11.71 |
| `Nc1nc(N)c2c(n1)OC1(CCCN(Cc3nccs3)CC1)C2` (stereo not given) | 10.25 |
| `Cc1ccc(N2CCCC3(COCCN(c4cnccn4)C3)C2)nn1` (stereo not given) | 15.95 |
| `CC(C)N1CCO[C@H]2CN(C(=O)Cc3cccs3)C[C@H]21` | -6.266 |
| `NC(=O)CCN(C(=O)CSc1ccc(F)cc1)c1ccc(F)cc1` | -0.3344 |
| `Cc1ccc(CNC(=O)CNCC2CCN(CCO)CC2)s1` | 16.67 |
| `O=C1CC(c2cccnc2)C2(CCN(C(=O)N3CCOCC3)CC2)N1` (stereo not given) | 16.83 |
| `Cn1ccnc1SCC(=O)NCc1ccc2c(c1)CCC(=O)N2` | 4.7 |
| `O=C(NCc1ccccn1)NCC(c1ccco1)N1CCCC1` (stereo not given) | 9.253 |
| `O=C(NCc1ncc[nH]1)c1c(F)cccc1I` | 5.226 |
| `C[C@@H]1CN(C(=O)c2nc3ccc(Cl)cn3c2-c2ncc[nH]2)C[C@H](C)O1` | 17.02 |
| `CO[C@@H]1CCN(S(=O)(=O)c2cccs2)[C@H]1Cc1ccccc1` | 16.19 |
| `O=C(CN1CC(c2ccccc2)CC1=O)N1CCC(c2ncc[nH]2)CC1` (stereo not given) | 13.01 |
| `CC(C)C(NC(=O)NCC1(CO)CC1)c1nnc2n1CCC2` (stereo not given) | 17.14 |
| `CCn1ccc(C(=O)N2CCCC2(C)c2nc(C)cc(N(C)C)n2)n1` (stereo not given) | 11 |
| `COCc1cccc(NC(=O)NCCCN(C)S(C)(=O)=O)c1` | 5.307 |
| `CN(C)c1cc(C2CCCN(C(=O)c3noc4c3CCCC4)C2)ccn1` (stereo not given) | 15.56 |
| `Cc1nn(C)c2cnn(CC(=O)NCc3ccccc3F)c12` | -41.96 |
| `O=C(c1ccc2c(c1)OCCO2)N1CCCC(n2ccnc2)C1` (stereo not given) | 15.76 |
| `Cn1nc(C(=O)NCc2ccccn2)c2c1CCS(=O)(=O)C2` | 19.5 |
| `CNC(=O)c1ccc(CNC(=O)c2ccc(Cl)cc2F)cc1` | 15.14 |
| `O=C(O)C(c1ccc2c(c1)OCCO2)N1CCCCCC1` (stereo not given) | 16.59 |
| `O=C(c1ccccc1)N1C[C@@H]2CC[C@H](C1)N(S(=O)(=O)c1cccnc1)C2` | 11.76 |
| `CC(C)[C@H]1CN(Cc2nccn2C)C[C@@H]1NC(=O)CCS(C)(=O)=O` | 0.542 |
| `NC(=O)C1CN(c2ccc(F)cc2)CCN1` (stereo not given) | 7.937 |
| `Cc1ccc(S(=O)(=O)NC2=NCN(CCc3cccs3)CN2)cc1` | 9.394 |
| `CCOC(=O)NC1CCCN(c2cncc(Br)c2)C1` (stereo not given) | 16.03 |
| `O=C1N(C2CCOCC2)CCCC12CCN(c1ncccc1Cl)C2` (stereo not given) | -5.521 |
| `Cc1nc(NCc2noc(C3CCCO3)n2)c2sccc2n1` (stereo not given) | 20.34 |
| `Cn1cc(C[C@H]2[C@H](O)CCN2Cc2ccc3c(c2)OCO3)cn1` | 12.44 |
| `CCC1CN(C(=O)NCCOc2ccc3c(c2)OCO3)CCO1` (stereo not given) | 8.014 |
| `CC(C)OCCS(=O)(=O)c1nccn1-c1cccc(F)c1` | 10.65 |
| `CN(Cc1cccs1)c1cc(N2CCCC2CO)ncn1` (stereo not given) | 13.7 |
| `CN(Cc1cccnc1)Cc1cncc2c1CCN(c1ccccn1)C2` | 7.235 |
| `CCOCC(O)CN1CCN(C(=O)c2ccc(N(C)C)nc2)CC1` (stereo not given) | 10.87 |
| `CC(C)(O)CCc1ccc(C(=O)N2Cc3cnn(CCO)c3C2)cc1` | 8.629 |
| `Cc1cnc(C(=O)NC(CN2CCCC2=O)c2ccccc2)cn1` (stereo not given) | 21.31 |
| `COC1CCN(C(=O)Cn2nc(C)cc2C)CC1` | 14.24 |
| `CN1CC(c2ccccc2)CC12CCN(C(=O)c1ccc(Cl)cc1)CC2` (stereo not given) | 14.84 |

Data taken from ChEMBL document CHEMBL3988442, “University of Dundee, Small-Polar-MMV Screening Library” (2021).